Measured values from paper PMC2909763 (Chemistry & biology, 2009).

Tested on: acetylated histone H3 in FRDA lymphoblast cell line
Test: Histone H3 acetylation by western blot in FRDA lymphoblasts
Format: cell-based, human
Details: then washed

O=C(CCCCCCC(=O)Nc1ccccc1)NO [SAHA, suberoylanilide hydroxamic acid, reference compound]
hyperacetylation of histone H3 after inhibitor removal (3 or 106 at 10 μM, SAHA at 2 μM, 24 h, 0 to 7 h): disappeared rapidly
time for acetylation to return to no-inhibitor levels after removing inhibitor (SAHA 2 μM for 24 h): ≤ 2 h
